At least one peptide structure holds a part that was inferred or is arguable (an end, a ring closure or a residue). Where a SMILES comes first, the peptide text is derived from it.
Assays:
insulin = test: Insulin inhibition in vivo: portal vein insulin in anesthetized rats; set-up: species or system rat; conditions: multiples or fractions of the effect of somatostatin (=1), via external jugular vein, portal vein blood after 5 minutes
Method: Analogs of somatostatin were compared to somatostatin in their ability to decrease the levels of portal vein glucagon and insulin in anesthetized rats. Male Sprague-Dawley rats (Charles River CD) weighing 160-200 g were anethetized with urethane (150 mg/100 g of body weight; Aldrich). Saline or peptides were administered via the external jugular vein. After 5 minutes, the portal vein was exposed, and blood was collected via syringe containing 3 mg of EDTA and placed in chilled tubes containing 100 μl of Trasylol (FBA Pharmaceuticals) for subsequent hormone analysis. Plasma levels of glucagon were determined by the method of Faloona and Unger, Methods of Hormone Radioimmunoassay, Jaffe and Behrman (Eds), Academic Press, New York, Vol. II, pp. 257-527 (1976), utilizing glucagon antisera 30K obtained from R. Unger (Dallas, Tx). Plasma levels of insulin were determined by a modification of the procedure of Herbert et al., J. Clin. Endocrinol. Metab., 25, 1375-1384 (1965).

growth hormone release = test: Growth Hormone--in vitro: growth hormone release inhibition in cultured rat pituitary cells; format: cell-based; conditions: multiples or fractions of the effect of somatostatin (=1), 4 hours incubation
Method: Rat pituitaries were isolated according to the procedures of Vale and Grant "In vitro Pituitary Hormone Secretion Assay for Hypophysioprivic Substances" in Methods in Enzymology. Vol.XXXVII,eds. O'Malley, B. W. and Hardman, J. G. (Academic Press, Inc., New York) pp. 5-93 (1975).
After 4 days in culture, the cells were washed and incubated for 4 hours in Dulbecco modified Eagle's medium in the presence or absence of graded doses of each analog or somatostatin. The medium was then collected for subsequent growth hormone determination by a double antibody radioimmunoassay for rat growth hormone.

glucagon = test: Glucagon inhibition in vivo: portal vein glucagon in anesthetized rats; set-up: species or system rat; conditions: multiples or fractions of the effect of somatostatin (=1), via external jugular vein, portal vein blood after 5 minutes
[1] = test system: pentagastrin evoked gastric secretion; test: Inhibition of pentagastrin evoked gastric secretion in the chronic fistula dog; format: in vivo; conditions: Dose 0.8 μg/ml./min., infusion 0-60 min, relative to placebo trial
Method: Compounds were tested for their ability to inhibit pentagastrin evoked gastric secretion in the chronic fistula dog. Female beagle dogs with a chronic gastric fistula were given pentagastrin (2.5 μg./kg./hour, i.v. from -60 to 120 min.) and gastric outputs were collected via the fistula cannula. Samples were analyzed at 30 minute intervals for volume (ml.) and titratable acid (mEq/L) (Titration to pH 7 with 0.01 N NaOH); total acid output (mEq) was calculated as the production of output volume and acid concentration. Test compounds were infused at a constant rate from 0 to 60 minutes. Data have been expressed as percent change of total acid output relative to a placebo trial in the same animals.

Q: What does the source list for `C[C@@H](O)[C@@H]1NC(=O)[C@H](CC(F)CCN)NC(=O)[C@@H](Cc2c[nH]c3ccccc23)NC(=O)[C@H](Cc2ccccc2)NC(=O)[C@@H]2CCCN2C(=O)[C@H](Cc2ccccc2)NC1=O` (stereo partly drawn) [Cyclo(Pro-Phe-D-Trp-γ-F-Lys-Thr-Phe)] (HELM PEPTIDE1{F.P.F.[dW].[NCCC(F)C[C@H](N[*:1])C(=O)[*:2]].T}$PEPTIDE1,PEPTIDE1,1:R1-6:R2$$$V2.0)?
A: Insulin Inhibition In Vivo (insulin): 2.76; Growth Hormone Release Inhibition In Vitro (growth hormone release): 2.17; Glucagon Inhibition In Vivo (glucagon): 1.64; Gastric Secretion % Inhibition Acid Concentration 0-30 ([1]; interval 0-30 min): 26%; Gastric Secretion % Inhibition Vol. 0-30 ([1]; interval 0-30 min): 78%; Gastric Secretion % Inhibition Acid Concentration 30-60 ([1]; interval 30-60 min): 45%; Gastric Secretion % Inhibition Vol. 30-60 ([1]; interval 30-60 min): 93%; Gastric Secretion % Inhibition Acid Concentration 60-90 ([1]; interval 60-90 min): 52%; Gastric Secretion % Inhibition Vol. 60-90 ([1]; interval 60-90 min): 51%; Gastric Secretion % Inhibition Acid Concentration 90-120 ([1]; interval 90-120 min): 12%; Gastric Secretion % Inhibition Vol. 90-120 ([1]; interval 90-120 min): -68%
